The structures appear in SMILES notation.

The record followed here is patent publication US20190083521A1, “COMBINATION THERAPY FOR TREATING CANCER” (Epizyme, Inc., priority 2014, published 2019).

The assay has as its system MOLM-13 (MLL-AF9) cells. The assay can be described thus: Combination proliferation assay with Compound A2 (CellTiter-Glo, Chou-Talalay CI). Format: cell-based, human. The settings on record: 7 Day Cotreatment Model. As for the experimental part:
The acute myelogenous leukemia cell lines MV4-11 (MLL-AF4) and MOLM-13 (MLL-AF9) were obtained from American Type Culture Collection (ATCC; Rockville, Md.) and Deutsche Sammlung von Mikroorganismen and Zellkulturen (DSMZ; Braunschweig, Germany) respectively.
Studies were performed using MLL-rearranged cell lines in vitro to evaluate the anti-proliferative effect of a combination of two agents together on cell growth. Initial proliferation studies were performed to determine the IC50 of a given compound in each cell line. The cell counts were measured by ATP quantitation using the Promega Cell Titer Glo kit and luminescence values corresponded to the amount of ATP in a given well.
Compounds were evaluated for synergy in the co-treatment phase by testing the compounds in a concentration range which was bracketed around their IC50 values. […]
The drug combination analysis was performed utilizing the Chou-Talalay method Synergy was determined using the software package Calcusyn by Biosoft. The combination index (CI) is a quantitative term used to describe the level of synergy or antagonism in a given test system. […]
The HP-D300 digital dispenser (Tecan) was used to dispense compounds in a combinatorial matrix. […] Cell viability was measured via ATP content using CellTiter-Glo® (Promega).
Viability was determined using CellTiter-Glo® (Promega). […]
(In general: ATP-based viability assays read luminescence as a measure of living cells.)

Regarding `O=C1OCCN1/N=C/c1ccc([N+](=O)[O-])o1` [Furazolidone], the “Combination effect with Compound A2 (Table 4)” value is “Combination Benefit”.
